Data as given in PubChem BioAssay AID504784 (Drosophila RNAi Screening Center, 2011).
The deposit covers about 17,000 reagents; this is an unselected part of those that have a named target and a result. 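Each column is one replicate's B-score; the combined score over replicates was not deposited, so single values may mislead.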 Names joined by + are all predicted targets of the reagent.

Assay: 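Search for regulators of lipid droplet storage in oleate-fed fly cells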 (primary screen)
Cells: Drosophila Kc167 embryonic cells
Knock-down reagent: long dsRNA against Drosophila genes, about 250 ng dsRNA per well
Duration: 4 days
Conditions: cells fed 400 µM oleic acid bound to BSA
Read-out: 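Microscope images give a droplet-to-nucleus area ratio, taken as log and converted to a screen-wide B-score; higher values mean greater lipid storage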
Reading the numbers: droplet/nuclear area B-score: higher = more stored lipid (overstorage)

| gene knocked down | dsRNA | droplet/nuclear area B-score, replicate 1 | droplet/nuclear area B-score, replicate 2 | droplet/nuclear area B-score, replicate 3 |
| --- | --- | --- | --- | --- |
| CG5808 (GeneID 42957) | DRSC14124 | 9.47 | 0.715 | – |
| lncRNA:roX1 (GeneID 3772376) | DRSC21884 | 0.826 | -0.385 | – |
| Reg-5 (GeneID 37968) | DRSC04647 | -2 | -1.47 | – |
| Sesn (GeneID 37755) | DRSC04101 | -0.703 | 0.771 | – |
| Sesn (GeneID 37755) | DRSC04102 | -0.482 | -0.978 | – |
| Sesn (GeneID 37755) | DRSC04103 | 0.522 | -0.831 | – |
| CG16935 (GeneID 36540) | DRSC06638 | -0.0539 | -0.307 | – |
| CG4502 (GeneID 34002) | DRSC02755 | -1.38 | -2.84 | – |
| CG4502 (GeneID 34002) | DRSC23237 | 0.872 | -0.414 | – |
| Ac3 (GeneID 35419) | DRSC03692 | 0.611 | -0.593 | – |
| CG18262 (GeneID 31745) | DRSC18149 | 0.0423 | 0.25 | – |
| DEF8 (GeneID 39381) | DRSC09840 | 0.298 | 1.13 | – |
| CG11404 (GeneID 40474) | DRSC11656 | 0.00649 | 2.04 | – |
| CG11192 (GeneID 37309) | DRSC06057 | 1.32 | -0.571 | – |
| Or30a (GeneID 34236) | DRSC03385 | -0.00317 | -0.0301 | – |
| ACXD (GeneID 38284) | DRSC07843 | -1.49 | -0.576 | – |
| CG12814 (GeneID 41246) | DRSC14552 | 1.06 | -1.86 | – |
| CG12814 (GeneID 41246) | DRSC14553 | -1.96 | -1.09 | – |
| CG5033 (GeneID 37036) | DRSC07410 | 0.172 | -0.12 | – |
| Gr68a (GeneID 39324) | DRSC10803 | 0.989 | 0.0936 | – |
| CG12869 (GeneID 36616) | DRSC06208 | -0.957 | -0.569 | – |
| VhaAC39-2 (GeneID 42739) | DRSC15609 | 0.0234 | -0.131 | – |
| CG4194 (GeneID 31173) | DRSC18520 | 0.718 | -0.688 | – |
| Cul6 (GeneID 39474) | DRSC09830 | -0.503 | 1.6 | – |
| Lsm10 (GeneID 36141) | DRSC06250 | -0.817 | -1.32 | – |
| Etl1 (GeneID 34311) | DRSC02911 | 1.43 | -0.0061 | – |
| POLDIP2 (GeneID 40655) | DRSC12194 | 1.96 | -0.0298 | – |
| tef (GeneID 36920) | DRSC07301 | 0.00505 | – | – |
| tef (GeneID 36920) | DRSC22041 | -1.35 | -1.16 | – |
| Smyd4-2 (GeneID 39414) | DRSC10126 | 0.713 | -0.207 | – |
| CR33328 (retired record) (GeneID 3771751) | DRSC22954 | -0.0466 | -0.0187 | – |
| feo (GeneID 32015) | DRSC19398 | 0.394 | 0.183 | – |
| CG14075 (GeneID 40071) | DRSC10080 | -1.37 | -2.61 | – |
| Zw (GeneID 32974) | DRSC20303 | -0.702 | -0.0188 | – |
| btsz (GeneID 3346167) | DRSC14982 | 0.0211 | 1.95 | – |
| btsz (GeneID 3346167) | DRSC16231 | 0.0272 | -1.24 | – |
| CG2889 (GeneID 31977) | DRSC18236 | -0.281 | -0.393 | 0.841 |
| CG13728 (GeneID 39937) | DRSC10056 | 0.576 | 0.998 | – |
| RYa-R (GeneID 43253) | DRSC16757 | 0.217 | – | – |
| CG7567 (GeneID 43479) | DRSC16258 | 0.0019 | 0.772 | – |
| CG11334 (GeneID 43713) | DRSC14066 | 0.485 | 1.14 | – |
| CG11334 (GeneID 43713) | DRSC14302 | 0.0427 | 0.537 | – |
| sna (GeneID 34908) | DRSC03613 | 0.241 | -0.286 | – |
| CG11149 (GeneID 33800) | DRSC02130 | -0.189 | -1.71 | – |
| RhoGAPp190 (GeneID 32743) | DRSC20097 | -1.28 | -5.99 | – |
| RhoGAPp190 (GeneID 32743) | DRSC20099 | -0.00563 | -0.483 | – |
| CG8516 (GeneID 41206) | DRSC16437 | -0.853 | -2.14 | – |
| CG10505 (GeneID 37428) | DRSC04075 | -0.679 | -1.12 | – |
| CG6701 (GeneID 36550) | DRSC07007 | -5.02 | 0.661 | – |
| CG4891 (GeneID 34948) | DRSC01936 | 0.105 | 0.0061 | – |
| Wdr62 (GeneID 33367) | DRSC00081 | -0.917 | -0.379 | – |
| Wdr62 (GeneID 33367) | DRSC00701 | 1.46 | 0.742 | – |
| Wdr62 (GeneID 33367) | DRSC21913 | 0.0848 | 0.422 | – |
| Rab1 (GeneID 42524) | DRSC16808 | -0.388 | 2.5 | – |
| CG16922 (retired record) (GeneID 32030) | DRSC19758 | 0.781 | 0.316 | 0.552 |
| CG16922 (retired record) (GeneID 32030) | DRSC23140 | -0.482 | 1.14 | – |
| RpL36A (GeneID 34098) | DRSC03055 | 2.72 | 2.75 | – |
| PolQ (GeneID 41571) | DRSC17006 | 0.239 | 2.72 | – |
| DIP-theta (GeneID 33795) | DRSC00885 | 0.0724 | -1.07 | 0.207 |
| DIP-theta (GeneID 33795) | DRSC02340 | 0.479 | 1.01 | – |
| DIP-theta (GeneID 33795) | DRSC02341 | 1.28 | 0.553 | – |
| Pex16 (GeneID 40293) | DRSC11750 | 0.582 | -2.03 | 1.29 |
| eIF1 (GeneID 38398) | DRSC08520 | 0.409 | 2.07 | – |
| CG8441 (GeneID 36792) | DRSC07180 | -1.36 | -2.19 | – |
| CG31482 (GeneID 40806) | DRSC12582 | 1.75 | 0.039 | – |
| Clk (GeneID 38872) | DRSC11117 | -0.365 | -0.777 | – |
| Fim (GeneID 32721) | DRSC20243 | 1.33 | 1.25 | – |
| CG18605 (GeneID 37189) | DRSC06772 | -2.45 | – | – |
| Teh1 (GeneID 41215) | DRSC14544 | 0.726 | 1.16 | – |
| CG33143 (GeneID 37583) | DRSC04151 | 0.106 | 1.72 | – |
| CG33143 (GeneID 37583) | DRSC04454 | 0.232 | 0.322 | – |
| CG11585 (GeneID 32365) | DRSC19410 | -0.602 | -1.68 | – |
| CG32266 (GeneID 317945) | DRSC08062 | 0.399 | 1 | – |
| Lip2 (GeneID 43980) | DRSC02577 | -0.272 | 1.12 | – |
| Lip2 (GeneID 43980) | DRSC02578 | -0.538 | -0.676 | – |
| CG13869 + CG11099 | DRSC06428 | -0.814 | -0.984 | – |
| SdhC (GeneID 41340) | DRSC16088 | 1.21 | 4.45 | – |
| CG15196 (GeneID 32084) | DRSC19643 | 0.225 | -0.428 | -1.01 |
| CG10474 (GeneID 37211) | DRSC05993 | 1.36 | 0.00623 | – |
| mrva (GeneID 38808) | DRSC11009 | -1.66 | 1.08 | 0.21 |
| mrva (GeneID 38808) | DRSC21842 | -1.49 | 0.719 | – |
| Fatp3 (GeneID 37887) | DRSC04366 | 1.34 | -0.667 | – |
| Spn42Dc (GeneID 35600) | DRSC05010 | 0.532 | 0.0857 | – |

As entered above.
CG4891 (GeneID 34948) [DRSC01936], droplet/nuclear area B-score, replicate 1 = 0.105
Value of Spn42Dc (GeneID 35600) [DRSC05010] in “droplet/nuclear area B-score, replicate 1”: 0.532
CG11404 (GeneID 40474) [DRSC11656], droplet/nuclear area B-score, replicate 2: 2.04
Under “droplet/nuclear area B-score, replicate 2”, DIP-theta (GeneID 33795) [DRSC02340] reads 1.01
CG4194 (GeneID 31173) [DRSC18520], droplet/nuclear area B-score, replicate 2: -0.688
Entry of Lip2 (GeneID 43980) [DRSC02577] under “droplet/nuclear area B-score, replicate 2”: 1.12
